# Screening data, single-dose tests

Chains of the proteins cited; added tags and fusions are not shown.
UniProt P9WFT3, whole entry: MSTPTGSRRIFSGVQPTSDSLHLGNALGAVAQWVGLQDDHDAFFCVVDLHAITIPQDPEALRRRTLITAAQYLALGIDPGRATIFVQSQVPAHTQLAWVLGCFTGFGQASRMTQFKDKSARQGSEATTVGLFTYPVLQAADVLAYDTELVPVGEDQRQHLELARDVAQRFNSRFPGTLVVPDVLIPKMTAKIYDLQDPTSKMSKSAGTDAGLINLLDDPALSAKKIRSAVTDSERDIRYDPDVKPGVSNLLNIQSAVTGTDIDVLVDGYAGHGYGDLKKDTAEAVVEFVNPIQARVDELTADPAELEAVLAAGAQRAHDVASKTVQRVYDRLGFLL
UniProt P9WPC5, whole entry: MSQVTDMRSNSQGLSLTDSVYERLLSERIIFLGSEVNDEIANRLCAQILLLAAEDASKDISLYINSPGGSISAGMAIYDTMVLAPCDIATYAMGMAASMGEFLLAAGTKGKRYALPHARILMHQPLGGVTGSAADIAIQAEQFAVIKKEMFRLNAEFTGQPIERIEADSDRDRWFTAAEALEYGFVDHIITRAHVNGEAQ
UniProt P9WPC3, whole entry partner: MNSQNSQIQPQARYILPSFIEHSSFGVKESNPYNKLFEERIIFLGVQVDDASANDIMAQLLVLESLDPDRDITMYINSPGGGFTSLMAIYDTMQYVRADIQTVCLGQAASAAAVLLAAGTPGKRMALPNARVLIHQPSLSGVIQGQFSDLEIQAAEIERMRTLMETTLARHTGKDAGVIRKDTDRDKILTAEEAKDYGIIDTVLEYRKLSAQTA

Results are given as percent effect. The record does not define 0% and 100%; most values in the screen are far below 50% and negative numbers occur (in some assays of this library far below -100). This is an unselected part of the compounds tested.

MtTrpRS: 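Enzyme assay of tryptophanyl-tRNA synthetase; the read-out is not stated. Target: Tryptophan-tRNA ligase, Mycobacterium tuberculosis (UniProt P9WFT3). Compounds at 10 µM. Higher most likely means stronger inhibition; the record gives no direction and few retests gave an IC50. Size under these conditions: about 65,000 compounds, about 64 of them at 50% or above in at least one test.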
ClpP1P2: 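ClpP1P2, Mycobacterium tuberculosis (UniProt P9WPC5 and UniProt P9WPC3). Protease assay of ClpP1P2, read by the AMC dye that it sets free. Compounds at 50 µM. Direction is inferred from only a few compounds that gave an IC50; most scored high, so higher reads as stronger inhibition. Most other retested compounds had strongly negative values. Size under these conditions: about 69,000 compounds, about 10 of them at 50% or above in at least one test.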

Result for CCC(C)C(=O)NCc1c(C)nn(C)c1N1CCCN(C)CC1 (stereo unspecified) was MtTrpRS: -4.139%; ClpP1P2: -4.483%.
Result for COCCN(Cc1nc2c(cnn2C)c(=O)[nH]1)C(C)COC (stereo unspecified) was MtTrpRS: 1.337%; ClpP1P2: -3.709%.
Result for CCc1ncc2c(n1)CN(C(=O)COC)C2 was MtTrpRS: -0.2138%; ClpP1P2: 1.719%.
Result for O=S(=O)(Nc1ccc(N2CCOCC2)cn1)c1ccc(F)cc1 was MtTrpRS: 0.8227%; ClpP1P2: -23.99%.
Result for CCN1CCN(C(=O)c2ccnc(N(C)C)c2)CC1 was MtTrpRS: -4.85%; ClpP1P2: -13.04%.
Result for CC(=O)Nc1ccc(C(=O)N(C)Cc2cccc(F)c2)s1 was MtTrpRS: 4.242%; ClpP1P2: -7.941%.
Result for O=C1CCCC2=C1C(c1cc(Cl)ccc1F)Nc1nonc1N2 (stereo unspecified) was MtTrpRS: -7.148%; ClpP1P2: -6.823%.
Result for CCn1c(N)nc2cc(C(=O)N3CCCOCC3)cnc21 was MtTrpRS: -2.974%; ClpP1P2: -6.995%.
Result for Cc1cccc(C2CCCN(C(=O)CN3CCCC3=O)C2)c1 (stereo unspecified) was MtTrpRS: 3.905%; ClpP1P2: 8.007%.
Result for CCn1cc(S(=O)(=O)N(CCc2ccccc2)Cc2ccn(C)n2)cn1 was MtTrpRS: -4.534%; ClpP1P2: -17.6%.
Result for c1cc(-c2nnc([C@H]3CCNC3)o2)ccn1 was MtTrpRS: -5.873%; ClpP1P2: -16.5%.
Result for Cn1nc(C2CC2)c2c1NC(=O)CC2c1ccc(CN2CCCCC2)s1 (stereo unspecified) was MtTrpRS: -2.515%; ClpP1P2: 5.275%.
Result for CC(C)CNC(=O)c1ccc2c(=O)n(-c3ccccc3)cnc2c1 was MtTrpRS: -6.373%; ClpP1P2: -9.112%.
Result for COCCN1CCCC(c2ncc(C(=O)N(C)C)c(C)n2)C1 (stereo unspecified) was MtTrpRS: 3.045%; ClpP1P2: -5.784%.
Result for CCOCC1C[C@@H]2OCCN(C(=O)c3ccc[nH]3)[C@H]2C1 (stereo partly specified) was MtTrpRS: 2.05%; ClpP1P2: -16.06%.
Result for Cc1ccc(CNC(=O)C2CCN(C(=O)C(C)C)CC2)n1C was MtTrpRS: 1.349%; ClpP1P2: -4.55%.
Result for CC(C)c1cnc(CN(C)C2CCN(CCc3ccncc3)C2)o1 (stereo unspecified) was MtTrpRS: -0.9372%; ClpP1P2: 2.844%.
Result for COc1ccc(F)cc1-c1ccccc1CC1CNCCNC1=O (stereo unspecified) was MtTrpRS: -5.026%; ClpP1P2: -17.64%.
Result for Cc1ccccc1C(C)CC(=O)N1CC[C@H](O)C1 (stereo partly specified) was MtTrpRS: -7.066%; ClpP1P2: -4.4%.
Result for CC(=O)N1[C@H](CN(C)C)C[C@@H]2CN(C(=O)Cc3cccs3)CC[C@@H]21 was MtTrpRS: -2.156%; ClpP1P2: 0.09568%.
Result for CS(=O)(=O)NCc1nnc2n1CCN(Cc1ccccn1)C2 was MtTrpRS: 0%; ClpP1P2: 4.799%.
Result for CCOc1cc(C(=O)N2CCCC(n3nc(C)nc3C)C2)ccn1 (stereo unspecified) was MtTrpRS: -11.67%; ClpP1P2: -29.04%.
Result for CCc1nc(-c2cncnc2C2CCNC2)no1 (stereo unspecified) was MtTrpRS: 0.7916%; ClpP1P2: 1.761%.
Result for c1ccc(OCc2nnc3n2CCN(CC2CC2)C3)nc1 was MtTrpRS: -2.441%; ClpP1P2: 3.818%.
Result for Cc1ccc2oc([C@H]3CCN(Cc4ccccc4)C3)nc2c1 was MtTrpRS: -1.907%; ClpP1P2: 7.242%.
Result for Cn1cc2c(n1)C(CNCc1ccco1)OCC2 (stereo unspecified) was MtTrpRS: 23.5%; ClpP1P2: -5.352%.
Result for CCC(NC(=O)NC1CCN(S(C)(=O)=O)CC1)c1cccs1 (stereo unspecified) was MtTrpRS: 1.56%; ClpP1P2: 0.0934%.
Result for Cc1cc(C)n(CC2CCCN2CC(=O)N(C)C)n1 (stereo unspecified) was MtTrpRS: -2.895%; ClpP1P2: 4.957%.
Result for CN(C)CCn1ccnc1C1CCCN(c2ncc(Cl)cc2F)C1 (stereo unspecified) was MtTrpRS: 2.929%; ClpP1P2: -23.29%.
Result for COCCC(=O)N1CCC(c2nc(O)cc(-c3ccncc3)n2)C1 (stereo unspecified) was ClpP1P2: 2.369%.
Result for O=C(c1ccsc1)N1CCC2(CC1)CCN(S(=O)(=O)C1CC1)CC2 was ClpP1P2: 2.23%.
Result for CCc1nnc2n1CC(CNCc1nc(C)c(C)o1)CC2 (stereo unspecified) was MtTrpRS: 4.558%; ClpP1P2: 4.81%.
Result for CC(C)c1nsc(N2CCc3sccc3C2)n1 was MtTrpRS: -8.302%; ClpP1P2: 0.7786%.
Result for CCOc1ccc(NC(=O)CN2CCN(c3nccn3C)CC2)cc1 was MtTrpRS: -6.505%; ClpP1P2: -9.552%.
Result for Cc1cc(C)n(C2CCCN(C(=O)c3ccc(N(C)C)nn3)C2)n1 (stereo unspecified) was MtTrpRS: 0.06456%; ClpP1P2: -7.902%.
Result for Cc1ccccc1OC(C(=O)N1CCC2(CC1)CN(C)C(=O)O2)C(C)C (stereo unspecified) was MtTrpRS: -3.015%; ClpP1P2: -8.066%.
Result for O=C(NCCNc1ncccn1)N1CCCC1c1ccncc1 (stereo unspecified) was MtTrpRS: 0.136%; ClpP1P2: 7.813%.
Result for Cc1nccn1C1(C(=O)O)CCN(Cc2ccc3c(c2)OCCO3)CC1 was MtTrpRS: -4.461%; ClpP1P2: -4.194%.
Result for CN1CCCN(CC(CC(=O)Nc2ccc(Cl)cc2)C(=O)O)CC1 (stereo unspecified) was MtTrpRS: -1.386%; ClpP1P2: -8.881%.
Result for Cc1cccc(CN2C[C@@H](CN3CCCN(C)CC3)C[C@H](CO)C2)n1 was MtTrpRS: 4.85%; ClpP1P2: -3.997%.

Repeated from the top, 4 entries:

structure	MtTrpRS	ClpP1P2
CCC(C)C(=O)NCc1c(C)nn(C)c1N1CCCN(C)CC1 (stereo unspecified)	-4.139%	-4.483%
COCCN(Cc1nc2c(cnn2C)c(=O)[nH]1)C(C)COC (stereo unspecified)	1.337%	-3.709%
CCc1ncc2c(n1)CN(C(=O)COC)C2	-0.2138%	1.719%
O=S(=O)(Nc1ccc(N2CCOCC2)cn1)c1ccc(F)cc1	0.8227%	-23.99%

Measurements from “University of Dundee, Small-Polar-MMV Screening Library” (2021), ChEMBL document CHEMBL3988442.